From PMC8677849 come the findings set out here.

Protein sequences, listed by entry. Tags and fused reporters are not part of them. Lines headed by an entry give the natural chain unless they say otherwise; changes in a name come on top. Residues count along the entry.
UniProt Q9UJV9: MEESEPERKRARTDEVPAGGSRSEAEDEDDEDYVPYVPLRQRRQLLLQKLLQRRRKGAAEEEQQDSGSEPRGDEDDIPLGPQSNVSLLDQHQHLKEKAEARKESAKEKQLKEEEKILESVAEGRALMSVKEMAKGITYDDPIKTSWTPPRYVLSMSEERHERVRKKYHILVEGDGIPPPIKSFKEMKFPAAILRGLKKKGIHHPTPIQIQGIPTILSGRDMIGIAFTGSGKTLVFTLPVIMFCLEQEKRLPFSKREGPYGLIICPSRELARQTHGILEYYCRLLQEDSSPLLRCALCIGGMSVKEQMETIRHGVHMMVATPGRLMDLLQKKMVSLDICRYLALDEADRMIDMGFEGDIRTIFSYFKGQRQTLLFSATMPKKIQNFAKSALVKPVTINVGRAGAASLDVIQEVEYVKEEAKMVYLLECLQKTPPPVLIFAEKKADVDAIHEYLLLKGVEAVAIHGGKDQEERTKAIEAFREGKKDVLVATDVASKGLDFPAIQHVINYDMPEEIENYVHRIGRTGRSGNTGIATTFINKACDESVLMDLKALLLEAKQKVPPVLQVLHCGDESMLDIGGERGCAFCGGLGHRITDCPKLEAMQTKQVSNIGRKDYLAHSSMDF
UniProt O60930, 27-76 W43A/K59A/K60A: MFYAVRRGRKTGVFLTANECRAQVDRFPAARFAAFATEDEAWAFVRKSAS

In series [1] the target is DDX41 full-length (UniProt Q9UJV9). Description: fluorescence polarization. As to conditions: FP: 20 nM oligo, 20 mM HEPES pH 7.0, 100 mM NaCl, 5% glycerol, 20 C, recombinant protein, residues 1-622, protein details: N-terminal His6-3C, cleaved off with 3C protease. In general terms: Fluorescence polarisation rises when a labelled molecule tumbles more slowly, as on binding a larger partner.

Series [2] addresses T1, RNase H1 hybrid-binding domain (HBD) (UniProt O60930).
T1 sequence (looked up): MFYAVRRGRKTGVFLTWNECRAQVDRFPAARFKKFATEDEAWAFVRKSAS
Description: fluorescence polarization. The note with it: FP: 20 nM oligo, 20 mM HEPES pH 7.0, 100 mM NaCl, 5% glycerol, 20 C; recombinant protein; residues 27-76; protein details: His6-GST-3C cleaved off, AVI-tag; label: 6-FAM at 3' end of fw strand; DNA:RNA hybrid; letters put together from the description.

Series [3] addresses T2, HBD-WKK W43A,K59A,K60A (UniProt O60930).
T2 sequence (looked up): T1 sequence (looked up) with W17A, K33A, K34A
Description: fluorescence polarization. The note with it: FP: 20 nM oligo, 20 mM HEPES pH 7.0, 100 mM NaCl, 5% glycerol, 20 C; recombinant protein; residues 27-76; protein details: His6-GST-3C cleaved off, AVI-tag; label: 6-FAM at 3' end of fw strand; DNA:RNA hybrid; letters put together from the description.

The target of series [4] is T1, RNase H1 hybrid-binding domain (HBD). Description: EMSA. As to conditions: 25 uM protein; EMSA: 20 nM oligo, 20 mM Tris-Cl pH 7.5, 150 mM NaCl, 10% glycerol, 1 mM EDTA, 1 mM DTT, room temperature; recombinant protein; residues 27-76; protein details: His6-GST-3C cleaved off, AVI-tag; label: 6-FAM at 3' end of fw strand; DNA:RNA hybrid; letters put together from the description. Background: Mobility shift assays separate free from complexed probe on a gel.

Series [5] deals with T2, HBD-WKK W43A,K59A,K60A. Kind of series: EMSA. The note with it: 25 uM protein; EMSA: 20 nM oligo, 20 mM Tris-Cl pH 7.5, 150 mM NaCl, 10% glycerol, 1 mM EDTA, 1 mM DTT, room temperature; recombinant protein; residues 27-76; protein details: His6-GST-3C cleaved off, AVI-tag; label: 6-FAM at 3' end of fw strand; DNA:RNA hybrid; letters put together from the description.

Where a chain is given by its changes, count along the chain named. For at least one entry, the source does not settle the construct or the ends of the probe. For part of these data: The comparison behind a weaker result is the experiment's own reference, which may not be listed here. For part of these data: At least one verdict rests on a figure or table, not on a statement of the authors. For part of these data: Where a protein sequence is shown, tags need not be part of it.

Consider GACACCUGAUUC [ssRNA 12-mer], for which, in series [1] (label: 3' 6-FAM, letters put together from the description), the binding result is “binds more weakly”. Consider “GACACCTGATTC (double strand) [dsDNA 12-mer]”, for which, in series [1] (label: 6-FAM at 3' end of fw strand), the binding result is reported as “binds more weakly”.

The term Kd denotes the constant that tells how readily two partners part at equilibrium. “GACACCTGATTC / GAAUCAGGUGUC [RNA-DNA hybrid 12-mer]”: the Kd in series [2] was 0.19 µM; in series [1] (label: 6-FAM at 3' end of fw strand, DNA:RNA hybrid, letters put together from the description), 2.5 µM. Further, the binding result is “binds more weakly” in series [3], “binds” in series [4] and “binds more weakly” in series [5]. Take “GACACCUGAUUC / GAAUCAGGUGUC [dsRNA 12-mer]”: the binding result in series [1] (label: 6-FAM at 3' end of fw strand, letters put together from the description) is reported as “binds more weakly”. As for GACACCTGATTC [ssDNA 12-mer], the binding result in series [1] (label: 3' 6-FAM, single-stranded DNA) is on record as “binds more weakly”.
